Source: patent US20240229055A9, “MOGROSIDE COMPOSITIONS AND METHODS OF PRODUCING SAME” (Elo Life Systems, priority 2022, published 2024)
“Also recorded” adds a separate entry of the source.

Test system: sensory panel of experienced judges
Test: Descriptive analysis of sweetener attributes on a 15-cm line scale, low (0) to high (60)
Format: in vivo, human
Settings: solutions in spring water
Source text: The same samples described above were presented to a panel of 6-9 experienced judges for descriptive analysis. Solutions were blind-coded with random 3-digit codes and served at room temperature for evaluation. Panelists individually scored attributes of each sample, such as sweetness intensity, bitterness, astringency, and the presence of side flavors such as licorice or fruitiness. Scores were based on a 15-cm line scale marked with evenly spaced 5-point increments from low (0) to high (60). Samples were evaluated in duplicate. Water and […] crackers were provided for rinsing between samples. A solution of […] was made at 410 ppm in spring water (Ice Mountain, retail) to be about 6 SEV. A second solution was made at about 6 SEV of purified mogroside-V (Chem Faces, CFS202202) at 325 ppm. A panel of 7-8 trained judges evaluated the temporal properties and taste attributes of each sample, including blind duplicates, in the same manner described previously in the Mogroside Blend 80/15/5 Taste Quality sections. The panel also evaluated the intensity of several sensory attributes such as bitterness, astringency, caramel flavor, and fruitiness. The same 15-cm line scale was used for scoring, labeled from low (0) to high (60) with evenly spaced 5-point increments. The samples were served in 4-oz soufflé cups that were labeled with random 3-digit codes. Samples were evaluated at room temperature and included blind duplicates. Water and […] crackers were provided for rinsing between samples. A 400-ppm solution of V90 (Huacheng Bio, LHGE-230401) was tasted as a reference at the beginning of the descriptive analysis session for calibration verification among panelists.

Structure (SMILES): C[C@H](CC[C@@H](O[C@@H]1O[C@H](CO[C@@H]2O[C@H](CO)[C@@H](O)[C@H](O)[C@H]2O)[C@@H](O)[C@H](O)[C@H]1O[C@@H]1O[C@H](CO)[C@@H](O)[C@H](O)[C@H]1O)C(C)(C)O)[C@H]1CC[C@@]2(C)[C@@H]3CC=C4[C@@H](CC[C@H](O[C@@H]5O[C@H](CO[C@@H]6O[C@H](CO)[C@@H](O)[C@H](O)[C@H]6O)[C@@H](O)[C@H](O)[C@H]5O)C4(C)C)[C@]3(C)C(=O)C[C@]12C [11-oxo-mogroside V]
- taste quality in words: slight bitterness

Structure (SMILES): C[C@H](CC[C@@H](O[C@@H]1O[C@H](CO[C@@H]2O[C@H](CO)[C@@H](O)[C@H](O)[C@H]2O)[C@@H](O)[C@H](O)[C@H]1O[C@@H]1O[C@H](CO)[C@@H](O)[C@H](O)[C@H]1O)C(C)(C)O)[C@H]1CC[C@@]2(C)[C@@H]3CC=C4[C@@H](CC[C@H](O)C4(C)C)[C@]3(C)[C@H](O)C[C@]12C [Mogroside IIIA-1, mogroside III-A1]
- taste quality in words: strongly bitter with a strong lingering bitter aftertaste
- taste quality in words (listed as mogroside IIIA-1): strong bitter aftertaste that almost immediately overwhelmed any lingering sweet sensation

Structure (SMILES): C=C1C[C@@]23CC[C@H]4[C@@](C)(CCC[C@@]4(C)C(=O)O[C@@H]4O[C@H](CO)[C@@H](O)[C@H](O)[C@H]4O)[C@@H]2CC[C@]1(O[C@@H]1O[C@H](CO)[C@@H](O)[C@H](O[C@@H]2O[C@H](CO)[C@@H](O)[C@H](O)[C@H]2O)[C@H]1O[C@@H]1O[C@H](CO)[C@@H](O)[C@H](O)[C@H]1O)C3 [Rebaudioside A, rebaudioside A]
- taste quality in words: a bitter taste continued to linger; also recorded: notable bitterness compared to the other sweeteners
